{
  "source": "the supplement of paper PMC4807443",
  "note": "Structures can show the parent of a compound that is named as a salt. This is one part of the list. The numbers are fractions of the control, whatever unit the source prints. Most entries show no effect beyond the scatter of the controls.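 MIN6, a mouse insulinoma beta-cell line, stably carries a lentiviral reporter where Pdx1 and Ins1 promoters each drive a nuclear fluorescent protein; Hoechst staining and automated imaging counted cells. Drugs were candidate hits if Ins1 promoter readout exceeded two median absolute deviations from DMSO controls while Pdx1 activity stayed near normal.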",
  "data": [
    {"test_system": "MIN6", "test": "% Pdx1+ Ins1+ (double-positive, mature) cells relative to DMSO control (fold of DMSO control); higher = more mature Ins1 promoter-active cells", "conditions": "8.5 µM; 48 h; glucose 5 mM", "values": [
      {"molecule": "CN(C)CCCO[C@@H]1[C@H]2OC(C)(C)O[C@H]2O[C@@H]1[C@H](O)CO", "note": "[Amiprilose hydrochloride]", "% Pdx1+ Ins1+": 0.99},
      {"molecule": "C[C@]12CC[C@@H]3c4ccc(O)cc4CC[C@H]3[C@@H]1C[C@@H](O)[C@@H]2O", "note": "[Estriol]", "% Pdx1+ Ins1+": 0.854},
      {"molecule": "OCCOCCN1CCN(C(c2ccccc2)c2ccc(Cl)cc2)CC1", "note": "(configuration not stated) [Hydroxyzine dihydrochloride]", "% Pdx1+ Ins1+": 0.998},
      {"molecule": "C=CC1=C(C(=O)O)N2C(=O)[C@@H](NC(=O)/C(=N\\OCC(=O)O)c3csc(N)n3)[C@H]2SC1", "note": "[Cefixime]", "% Pdx1+ Ins1+": 1.02},
      {"molecule": "Cc1ccccc1N1C(=O)c2cc(S(N)(=O)=O)c(Cl)cc2NC1C", "note": "(configuration not stated) [Metolazone]", "% Pdx1+ Ins1+": 1.07},
      {"molecule": "COc1ccc2[nH]c([S+]([O-])Cc3ncc(C)c(OC)c3C)nc2c1", "note": "(configuration not stated) [Omeprazole]", "% Pdx1+ Ins1+": 0.917},
      {"molecule": "CC(=O)Nc1ccc(O)cc1", "note": "[Acetaminophen]", "% Pdx1+ Ins1+": 0.966},
      {"molecule": "CN(C)CCOC(=O)COc1ccc(Cl)cc1", "note": "[Meclofenoxate hydrochloride]", "% Pdx1+ Ins1+": 0.812},
      {"molecule": "N=C(N)N/N=C/c1c(Cl)cccc1Cl", "note": "[Guanabenz acetate]", "% Pdx1+ Ins1+": 0.689},
      {"molecule": "OC(CCN1CCCCC1)(c1ccccc1)C1CCCCC1", "note": "(configuration not stated) [Trihexyphenidyl-D,L Hydrochloride]", "% Pdx1+ Ins1+": 0.894},
      {"molecule": "CCC(=O)OCC(=O)[C@@]1(OC(=O)CC)[C@H](C)C[C@H]2[C@H]3[C@H]([C@@H](O)C[C@@]21C)[C@@]1(C)C=CC(=O)C=C1C[C@H]3Cl", "note": "[Alclometasone dipropionate]", "% Pdx1+ Ins1+": 0.865},
      {"molecule": "c1ccc2c(c1)CCCc1cc(NCCN3CCOCC3)nnc1-2", "% Pdx1+ Ins1+": 0.907},
      {"molecule": "Nc1cc(-c2ccncc2)c[nH]c1=O", "note": "[Amrinone]", "% Pdx1+ Ins1+": 0.809},
      {"molecule": "CN(C)[C@@H]1C(O)=C(C(N)=O)C(=O)[C@@]2(O)C(O)=C3C(=O)c4c(O)ccc(Cl)c4[C@@H](O)[C@H]3C[C@@H]12", "note": "[Demeclocycline hydrochloride]", "% Pdx1+ Ins1+": 0.982},
      {"molecule": "Cn1c([N+](=O)[O-])cnc1COC(N)=O", "note": "[Ronidazole]", "% Pdx1+ Ins1+": 1.09},
      {"molecule": "N[C@@H](C(=O)N[C@@H]1C(=O)N2C(C(=O)O)=C(Cl)CS[C@H]12)c1ccccc1", "note": "[Cefaclor]", "% Pdx1+ Ins1+": 0.94},
      {"molecule": "CC(Oc1ccccc1)C(=O)N[C@@H]1C(=O)N2[C@@H]1SC(C)(C)[C@@H]2C(=O)O", "note": "(some centres not stated) [Phenethicillin potassium salt]", "% Pdx1+ Ins1+": 0.953},
      {"molecule": "CN1CCN(C2=Nc3cc(Cl)ccc3Nc3ccccc32)CC1", "note": "[Clozapine]", "% Pdx1+ Ins1+": 0.941},
      {"molecule": "C[C@@H]1NC(=O)NC1=O", "note": "[Methylhydantoin-5-(L)]", "% Pdx1+ Ins1+": 0.862},
      {"molecule": "NC12CC3CC(CC(C3)C1)C2", "note": "[Adamantamine fumarate]", "% Pdx1+ Ins1+": 1.05},
      {"molecule": "Cc1cc(=O)n(-c2ccccc2)n1C", "note": "[Antipyrine]", "% Pdx1+ Ins1+": 1.11},
      {"molecule": "Clc1ccc(COC(Cn2ccnc2)c2ccc(Cl)cc2Cl)c(Cl)c1", "note": "(configuration not stated) [Miconazole]", "% Pdx1+ Ins1+": 1.08},
      {"molecule": "CC(C)(C(=O)c1cccnc1)c1cccnc1", "note": "[Metyrapone]", "% Pdx1+ Ins1+": 0.941},
      {"molecule": "O=c1cc(-c2ccc(O)c(O)c2)oc2cc(O)cc(O)c12", "note": "[Luteolin]", "% Pdx1+ Ins1+": 0.498},
      {"molecule": "CC(C)/N=c1\\cc2n(-c3ccc(Cl)cc3)c3ccccc3nc-2cc1Nc1ccc(Cl)cc1", "note": "[Clofazimine]", "% Pdx1+ Ins1+": 0.783},
      {"molecule": "CCN[C@H]1C[C@H](C)S(=O)(=O)c2sc(S(N)(=O)=O)cc21", "note": "[Dorzolamide hydrochloride]", "% Pdx1+ Ins1+": 0.914},
      {"molecule": "CC(=O)N(O)CCCCCNC(=O)CCC(=O)N(O)CCCCCNC(=O)CCC(=O)N(O)CCCCCN", "note": "[Deferoxamine mesylate]", "% Pdx1+ Ins1+": 0.676},
      {"molecule": "CC(C)NC[C@H](O)COc1ccc(CC(N)=O)cc1", "note": "[(S)-(-)-Atenolol]", "% Pdx1+ Ins1+": 1},
      {"molecule": "CO[C@@]1(NC(=O)CSCC#N)C(=O)N2C(C(=O)O)=C(CSc3nnnn3C)CS[C@@H]21", "note": "[Cefmetazole sodium salt]", "% Pdx1+ Ins1+": 0.721},
      {"molecule": "C[C@@H]1[C@H](O)[C@@H](C)/C=C/C=C/C=C/C=C/C=C/C=C/C=C/[C@H](O[C@@H]2O[C@H](C)[C@@H](O)[C@H](N)[C@@H]2O)C[C@@H]2O[C@](O)(C[C@@H](O)C[C@@H](O)[C@H](O)CC[C@@H](O)C[C@@H](O)CC(=O)O[C@H]1C)C[C@H](O)[C@H]2C(=O)O", "note": "[Amphotericin B]", "% Pdx1+ Ins1+": 1.08},
      {"molecule": "CCC(NC(C)C)C(O)c1ccc(O)c(O)c1", "note": "(configuration not stated) [Isoetharine mesylate salt]", "% Pdx1+ Ins1+": 0.9},
      {"molecule": "CCC(Cc1c(I)cc(I)c(N)c1I)C(=O)O", "note": "(configuration not stated) [Iopanoic acid]", "% Pdx1+ Ins1+": 0.903},
      {"molecule": "CN1CCc2cccc3c2[C@H]1Cc1ccc(O)c(O)c1-3", "note": "[R(-) Apomorphine hydrochloride hemihydrate]", "% Pdx1+ Ins1+": 0.848},
      {"molecule": "CC[C@@H](CC[C@@H](C)[C@H]1CC[C@H]2[C@@H]3CCC4C[C@@H](O)CC[C@]4(C)[C@H]3CC[C@]12C)C(C)C", "note": "(stereo partly drawn) [Beta-sistosterol]", "% Pdx1+ Ins1+": 0.972},
      {"molecule": "COc1cc(OC)c(C(=O)CCCN2CCCC2)c(OC)c1", "note": "[Buflomedil hydrochloride]", "% Pdx1+ Ins1+": 0.95},
      {"molecule": "COc1ccc2c(c1)N(C[C@H](C)CN(C)C)c1ccccc1S2", "note": "[Methotrimeprazine maleat salt]", "% Pdx1+ Ins1+": 1.02},
      {"molecule": "CCCN(CCC)C(=O)C(CCC(=O)O)NC(=O)c1ccccc1", "note": "(configuration not stated) [Proglumide]", "% Pdx1+ Ins1+": 1.08}
    ]}
  ]
}
